The list does not hold the whole screen: it gathers tests that were run many times, whatever their T/C, doses with no T/C, and many T/C values between a quarter and a half above the control. Other doses and runs of a compound stand elsewhere. T/C is the treated group as % of the vehicle group. Some doses have a count of surviving animals in place of a T/C: the source files T/C as zero there, which appears to mark a toxic dose or a test without result, not a measured value. Some survivor counts are full or nearly so, which does not show that the dose was tolerated: survival well below the control is almost never listed, so the zero probably covers shortened survival too. Counts of survivors are from the toxicity check (mostly the fifth day) where no day follows; animals may have died later. Schedules are NCI's codes, read here as Q, the interval in days (D) or hours (H), X, the number of doses. Some schedule codes hold Z or #, which are not explained here. Where survival is the endpoint, the PubChem record calls one and a half times the control and up active, and a quarter to a half above the control has no call in these data; cut-offs in other NCI protocols can differ. Some entries were tested several times; the values are given in rising order. Some T/C values carry the count of animals alive at the toxicity check (mostly the fifth day); where none is given, no animal had died by that day.
Test system: BDF1 mice, P388 leukemia ip, median survival T/C
Assay: NCI In Vivo Anticancer Drug Screen. Data for tumor model P388 Leukemia (intraperitoneal) in B6D2F1 (BDF1) mice
Conditions: T/C endpoint: median survival time, higher T/C = longer survival
In short: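 In tumour-bearing mice, survival after compound treatment is set against the vehicle group and given as a quotient.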

[1] = dose: 200.0 mg/kg/injection, schedule: Q04DX003 (ip), vehicle: saline

Structure (SMILES): C=C(C)C12OC3(c4ccccc4)OC1C1C4OC4(CO)C(O)C4(O)C(=O)C(C)=CC4C1(O3)C(C)C2OC(=O)/C=C/C=C/C=C/CCC (configuration not stated)
- survivor count (dose: 200.0 micrograms/kg/injection, schedule: Q## X009 (ip), vehicle: saline with Tween-80): 6 of 6
- survivor count (dose: 400.0 micrograms/kg/injection, schedule: Q## X009 (ip), vehicle: saline with Tween-80): 5 of 6

Structure (SMILES): CCOC(=O)C1(c2ccccc2)CCCN(C)CC1 (configuration not stated)
- survivor count [1]: 1 of 6
- survivor count (dose: 400.0 mg/kg/injection, schedule: Q04DX003 (ip), vehicle: saline): 1 of 6

Structure (SMILES): Nc1cc(/C=C/c2ccc([N+](=O)[O-])cc2)nc2ccccc12
- T/C (dose: 100.0 mg/kg/injection, schedule: Q04DX002 (ip), vehicle: saline with Tween-80): 130 and 144 % of control
- survivor count (dose: 200.0 mg/kg/injection, schedule: Q04DX002 (ip), vehicle: saline with Tween-80): 3 of 6
- survivor count (dose: 400.0 mg/kg/injection, schedule: Q04DX002 (ip), vehicle: saline with Tween-80): 0 of 6

Structure (SMILES): O=C(O)c1ccccc1C(=O)Nc1ccccc1C(F)(F)F
- T/C (dose: 400.0 mg/kg/injection, schedule: Q01DX009 (ip), vehicle: saline with Tween-80): 128 % of control [5 of 6 alive]

Structure (SMILES): N#Cc1c(NN)n(C2OC(CO)C(O)C2O)c2ncnc(N)c12 (configuration not stated)
- T/C (dose: 30.0 mg/kg/injection, schedule: Q04DX003 (ip), vehicle: saline): 149 % of control

Structure (SMILES): COc1ccc2cc1Oc1ccc(cc1)CC1=NCCc3cc(OC)c(OC)c(c31)Oc1cc3c(cc1OC)CCN(C)C3C2 (configuration not stated)
- survivor count (dose: 150.0 mg/kg/injection, schedule: Q01DX010 (ip), vehicle: carboxymethylcellulose (CMC)): 5 of 6

Structure (SMILES): CN(CCOS(C)(=O)=O)CCOS(C)(=O)=O
- survivor count (dose: 0.84 mg/kg/injection, schedule: Q01DX009 (ip), vehicle: saline): 6 of 6
- T/C (dose: 0.99 mg/kg/injection, schedule: Q04DX003 (ip), vehicle: saline): 140 % of control
- survivor count (dose: 1.12 mg/kg/injection, schedule: Q01DX009 (ip), vehicle: saline): 6 of 6
- T/C (dose: 1.5 mg/kg/injection, schedule: Q04DX003 (ip), vehicle: saline): 127 % of control
- survivor count (dose: 2.25 mg/kg/injection, schedule: Q01DX009 (ip), vehicle: saline): 6 of 6
- T/C (dose: 2.25 mg/kg/injection, schedule: Q04DX003 (ip), vehicle: saline): 140 % of control
- survivor count (dose: 3.0 mg/kg/injection, schedule: Q04DX003 (ip), vehicle: saline): 5 of 6
- survivor count (dose: 1.5 micrograms/kg/injection, schedule: Q01DX009 (ip), vehicle: saline): 6 of 6
- survivor count (dose: 3.6 micrograms/kg/injection, schedule: Q01DX009 (ip), vehicle: saline): 0 of 6
- survivor count (dose: 5.4 micrograms/kg/injection, schedule: Q01DX009 (ip), vehicle: saline): 0 of 6
- T/C (dose: 8.3 micrograms/kg/injection, schedule: Q01DX009 (ip), vehicle: saline): 136 % of control
- T/C (dose: 12.5 micrograms/kg/injection, schedule: Q01DX009 (ip), vehicle: saline): 138 % of control
- T/C (dose: 29.0 micrograms/kg/injection, schedule: Q01DX009 (ip), vehicle: saline): 142 % of control

Structure (SMILES): ClC1(Cl)Cc2ccccc21
- T/C (dose: 200.0 mg/kg/injection, schedule: Q04DX003 (ip), vehicle: saline with Tween-80): 128 % of control
- T/C (dose: 400.0 mg/kg/injection, schedule: Q04DX003 (ip), vehicle: saline with Tween-80): 133 % of control

Structure (SMILES): COC(OC)C1=C(Cl)C(Cl)=C(Cl)/C1=N\Nc1ccccc1
- survivor count (dose: 400.0 mg/kg/injection, schedule: Q01DX001 (ip), vehicle: saline with Tween-80): 1 of 6

Structure (SMILES): OCC1OC(n2cc(Cl)c3cncnc32)C(O)C1O (configuration not stated)
- survivor count [1]: 4 of 6
